# In the supplement of paper PMC9135407:
# Several values for one entry are separate records, joined by “and”; a condition that tells them apart may be missing. Equal values may be shown once. Where a name gives a salt, the structure may show the parent alone. ± gives the standard deviation of the averaged measurements. The list shows a part of the results. Part of the spread comes from offsets between plates or batches.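 Primary human stellate myofibroblasts activated in culture; inactivation shown by regained lipid droplets. Readout: fraction of Hoechst-counted cells exceeding a per-plate Bodipy threshold, duplicate wells, each plate with DMSO negative and nortriptyline positive controls. Hits: control-normalized score beyond the plate's top-tenth-percentile nortriptyline wells, or among its three best wells. Final well concentrations unstated.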
# Tested on: primary human hepatic stellate cells (donor 1)
# Assay: percent Bodipy-positive cells; higher = more lipid droplet accumulation
# Details: 48 h
# [1] = library stock concentration: 3.33 mM
# [2] = library stock concentration: 10 mM
# [3] = library stock concentration: 1 mM
# [4] = library stock concentration: 80 uM
# [5] = library stock concentration: 400 uM
# [6] = library stock concentration: 4.7 mM
structure (smiles),measurement,setting,value
CC(CNC(=O)c1cccnc1)NC(=O)c1cccnc1 (stereo not drawn) [Nicaraven],percent Bodipy-positive cells,[1],10.6 ± 4.7%
same,percent Bodipy-positive cells,[2],23.8 ± 14%
CC(C)SC(=N)N [S-isopropyl Isothiourea (hydrobromide)],percent Bodipy-positive cells,[3],10.9 ± 6.8%
CC(C)SC(=N)N [S-Isopropylisothiourea hydrobromide],percent Bodipy-positive cells,[2],7.77 ± 0.29%
O=C(Nc1ccccc1)N1CCN(c2nc(-c3ccccc3)ns2)CC1,percent Bodipy-positive cells,[1],7.13 ± 2.3%
same,percent Bodipy-positive cells,[2],28 ± 1%
CCc1ccc(OCc2ccccc2C(=O)Nc2ccc3nc(C)cc(N)c3c2)cc1,percent Bodipy-positive cells,[1],90.1 ± 14%
CN(C)CCc1c[nH]c2ccc(CS(=O)(=O)N3CCCC3)cc12 [Almotriptan Malate],percent Bodipy-positive cells,[1],13.3 ± 3.9%
same,percent Bodipy-positive cells,[2],13.5 ± 7.3%
CN(C)CCc1c[nH]c2ccc(CS(=O)(=O)N3CCCC3)cc12 [Almotriptan],percent Bodipy-positive cells,[2],31.8 ± 1.7%
Cn1nc(C(C)(C)C)cc1C(=O)N[C@@H](Cc1cccc(Cl)c1)C(=O)NCC#N [Cathepsin Inhibitor 1],percent Bodipy-positive cells,[1],9.95 ± 3.3%
same,percent Bodipy-positive cells,[2],17.1 ± 3.9%
CC1(COc2ccc(CC3SC(=O)NC3=O)cc2)CCCCC1 (stereo not drawn) [Ciglitazone],percent Bodipy-positive cells,[3],6.48% and 20.6%
same,percent Bodipy-positive cells,[2],7.05 ± 1.9%
CN(c1ncccc1CNc1nc(Nc2ccc3c(c2)CC(=O)N3)ncc1C(F)(F)F)S(C)(=O)=O,percent Bodipy-positive cells,[4],8.95 ± 4%
same,percent Bodipy-positive cells,[5],14.5% and 21%
CN1CCN2c3ccccc3Cc3ccccc3C2C1 (stereo not drawn) [Mianserin hcl],percent Bodipy-positive cells,library stock concentration: 7.6 mM,30.5 ± 3.4%
CN1CCN2c3ccccc3Cc3ccccc3C2C1 (stereo not drawn) [Mianserine hydrochloride],percent Bodipy-positive cells,,70.7 ± 12%
CN1CCN2c3ccccc3Cc3ccccc3C2C1 (stereo not drawn) [Mianserin HCl],percent Bodipy-positive cells,[1],26.9 ± 1.3%
same,percent Bodipy-positive cells,[2],44 ± 3.2%
CN1CCN2c3ccccc3Cc3ccccc3C2C1 (stereo not drawn) [Mianserin hydrochloride],percent Bodipy-positive cells,library stock concentration: 6.6 mM,40 ± 9.8%
same,percent Bodipy-positive cells,[2],33.9 ± 5.8%
CN1CCCN(C(=O)c2cccc(-c3ccc(/C=C4/C(=O)Nc5ccc(Cl)cc54)o3)c2)CC1,percent Bodipy-positive cells,[1],99.4 ± 0.85%
same,percent Bodipy-positive cells,[2],96.6 ± 1.6%
CCCCCCCCOc1ccccc1C(=O)Nc1ccc(C(=O)OCC[N+](C)(CC)CC)cc1 [Otilonium Bromide],percent Bodipy-positive cells,[1],9.5 ± 3.1%
same,percent Bodipy-positive cells,[2],48.7 ± 39%
"N[C@@H](Cc1ccc(O)c(O)c1)C(=O)O [L-3,4-Dihydroxyphenylalanine]",percent Bodipy-positive cells,[2],36 ± 0.81%
N[C@@H](Cc1ccc(O)c(O)c1)C(=O)O [Levodopa],percent Bodipy-positive cells,,26.7 ± 7.6%
same,percent Bodipy-positive cells,[2],38.8 ± 0.56%
CCCCc1ncc(/C=C(\Cc2cccs2)C(=O)O)n1Cc1ccc(C(=O)O)cc1 [Eprosartan Mesylate],percent Bodipy-positive cells,[1],7.97 ± 0.56%
same,percent Bodipy-positive cells,[2],35.6 ± 2.6%
CCCCc1ncc(/C=C(\Cc2cccs2)C(=O)O)n1Cc1ccc(C(=O)O)cc1 [Eprosartan mesylate],percent Bodipy-positive cells,[2],29.2 ± 13%
CCCCc1ncc(/C=C(\Cc2cccs2)C(=O)O)n1Cc1ccc(C(=O)O)cc1 [Eprosartan],percent Bodipy-positive cells,[6],10.43 ± 0.057%
O=C(O)CCC(=O)c1ccc(-c2ccccc2)cc1 [Fenbufen],percent Bodipy-positive cells,,20.9 ± 1.2%
same,percent Bodipy-positive cells,library stock concentration: 7.9 mM,8.62% and 16.9%
same,percent Bodipy-positive cells,[2],18.5 ± 7.5%
CCS(=O)(=O)N(C)[C@H]1c2cc(C#N)ccc2OC(C)(C)[C@@H]1O (racemic) [Chromanol 293B],percent Bodipy-positive cells,[2],7.03 ± 1.9%
"CCN1CCCC1CNC(=O)c1cc(S(N)(=O)=O)ccc1OC (single isomer, unassigned; (-)) [(-)-Sulpiride]",percent Bodipy-positive cells,[2],11 ± 3.4%
"O=C1Nc2ccc(Cl)cc2/C1=C/c1cc(Cl)c(O)c(Cl)c1 [PKR Inhibitor, Negative Control]",percent Bodipy-positive cells,[1],9.32 ± 1.4%
O=C1Nc2ccc(Cl)cc2/C1=C/c1cc(Cl)c(O)c(Cl)c1,percent Bodipy-positive cells,[4],12.3 ± 4.4%
same,percent Bodipy-positive cells,[5],12.1 ± 1.3%
same,percent Bodipy-positive cells,library stock concentration: 2 mM,7.47 ± 0.2%
same,percent Bodipy-positive cells,[2],9.23 ± 0.53%
O=C1c2c(O)ccc(O)c2C(=O)c2c(NCCNCCO)ccc(NCCNCCO)c21,percent Bodipy-positive cells,[2],100%
O=C1c2c(O)ccc(O)c2C(=O)c2c(NCCNCCO)ccc(NCCNCCO)c21 [Mitoxantrone],percent Bodipy-positive cells,[1],100%
O=C1c2c(O)ccc(O)c2C(=O)c2c(NCCNCCO)ccc(NCCNCCO)c21 [Mitoxantrone 2HCl],percent Bodipy-positive cells,library stock concentration: 4.5 mM,83.3 ± 24%
O=C1c2c(O)ccc(O)c2C(=O)c2c(NCCNCCO)ccc(NCCNCCO)c21 [Mitoxantrone dihydrochloride],percent Bodipy-positive cells,,97.5 ± 3.5%
O=C1c2c(O)ccc(O)c2C(=O)c2c(NCCNCCO)ccc(NCCNCCO)c21 [Mitoxanthrone hydrochloride],percent Bodipy-positive cells,[2],61.2 ± 12%
O=C1c2c(O)ccc(O)c2C(=O)c2c(NCCNCCO)ccc(NCCNCCO)c21 [Mitoxantrone HCl],percent Bodipy-positive cells,[1],100%
same,percent Bodipy-positive cells,[2],91.7 ± 12%
CCOC(=O)c1ccc(NC2CCCCC2)c(N)c1 [Ferrostatin-1 (Fer-1)],percent Bodipy-positive cells,[1],47.3 ± 0.75%
same,percent Bodipy-positive cells,[2],64.1 ± 5%
CCOC(=O)C1=C(C)NC(C)=C(C(=O)OC)C1c1cccc(Cl)c1Cl (stereo not drawn) [Felodipine],percent Bodipy-positive cells,,31.9 ± 3.4%
same,percent Bodipy-positive cells,[1],9.22 ± 3%
same,percent Bodipy-positive cells,library stock concentration: 5.2 mM,12.4 ± 1.2%
same,percent Bodipy-positive cells,[2],40.4% and 56.9%
C[C@H](CCC(=O)O)[C@H]1CC[C@H]2[C@@H]3C(=O)C[C@@H]4CC(=O)CC[C@]4(C)[C@H]3CC(=O)[C@]12C [Sodium dehydrocholate],percent Bodipy-positive cells,[6],3.91 ± 0.22%
same,percent Bodipy-positive cells,[2],10.4 ± 0.57%

# Random excerpt: 3 entries already listed, in no set order.
structure (smiles),measurement,setting,value
CC(CNC(=O)c1cccnc1)NC(=O)c1cccnc1 (stereo not drawn) [Nicaraven],percent Bodipy-positive cells,[2],23.8 ± 14%
O=C1Nc2ccc(Cl)cc2/C1=C/c1cc(Cl)c(O)c(Cl)c1,percent Bodipy-positive cells,[5],12.1 ± 1.3%
CC1(COc2ccc(CC3SC(=O)NC3=O)cc2)CCCCC1 (stereo not drawn) [Ciglitazone],percent Bodipy-positive cells,[3],6.48% and 20.6%
